Data reported in patent US20230132177A1.
No constants are given. Whether binding was seen depends on the method and setting. Some entries that bind do so weakly or less than the wild type.

Amino acid sequences for entries named in this document (tags omitted). A change or cut given only in a name is not applied to a line headed by its entry.
UniProt P02671: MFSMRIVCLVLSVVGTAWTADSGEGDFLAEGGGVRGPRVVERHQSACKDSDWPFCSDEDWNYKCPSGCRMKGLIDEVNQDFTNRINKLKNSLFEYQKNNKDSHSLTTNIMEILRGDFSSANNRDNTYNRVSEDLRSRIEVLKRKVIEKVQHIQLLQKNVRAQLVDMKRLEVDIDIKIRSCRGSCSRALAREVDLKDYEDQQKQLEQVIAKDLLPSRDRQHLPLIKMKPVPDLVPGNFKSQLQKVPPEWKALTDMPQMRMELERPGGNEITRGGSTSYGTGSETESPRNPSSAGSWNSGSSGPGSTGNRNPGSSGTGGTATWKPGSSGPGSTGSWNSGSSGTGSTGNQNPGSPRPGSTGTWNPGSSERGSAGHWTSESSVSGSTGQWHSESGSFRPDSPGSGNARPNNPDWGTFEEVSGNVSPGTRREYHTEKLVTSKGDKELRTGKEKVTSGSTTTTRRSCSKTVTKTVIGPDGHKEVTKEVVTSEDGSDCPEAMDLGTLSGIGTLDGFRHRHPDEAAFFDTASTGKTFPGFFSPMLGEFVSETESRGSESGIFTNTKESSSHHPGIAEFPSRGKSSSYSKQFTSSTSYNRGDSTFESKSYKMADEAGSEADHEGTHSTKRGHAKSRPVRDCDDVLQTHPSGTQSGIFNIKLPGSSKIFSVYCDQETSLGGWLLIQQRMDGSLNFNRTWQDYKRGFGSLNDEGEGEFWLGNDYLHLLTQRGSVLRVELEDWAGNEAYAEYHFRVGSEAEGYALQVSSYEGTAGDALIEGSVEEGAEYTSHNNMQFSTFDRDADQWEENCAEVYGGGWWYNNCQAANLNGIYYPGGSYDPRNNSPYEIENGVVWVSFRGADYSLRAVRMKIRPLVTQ

What was measured:
denatured fibrinogen [1] = target: denatured fibrinogen (UniProt P02671); experiment: western blot on denatured fibrinogen (1 µg/lane)
insoluble fibrin = insoluble fibrin (UniProt P02671); experiment: ELISA, plate coated with insoluble fibrin, HRP-labeled antibody
denatured fibrinogen [2] = target: denatured fibrinogen (UniProt P02671); experiment: western blot on denatured fibrinogen after SDS-PAGE, anti-human IgG-HRP secondary

Measured: binding

B1: humanized 1101 antibody (antibody, V domains shown)
VH: EVQLVQSGAEVKKPGESLKISCKGSGYSFTSYWMHWVRQMPGKGLEWIGAIYPGNSDTRYSPSFQGQVTISADKSISTAYLQWSSLKASDTAMYYCTRKAHYGNYGFAYWGQGTLVTVSS
VL: DIQMTQSPSSLSASVGDRVTITCRASQHINNWLAWYQQKPGKAPKLLISGATSLQSGVPSRFSGSGSGTDFTLTISSLQPEDFATYYCQQYWSTPLTFGQGTKVEIKR
binds: all assays above

B2: humanized 99 antibody (antibody, V domains shown)
VH: QVQLVQSGAEVKKPGASVKVSCKASGYTFTNYGMNWVRQAPGQGLEWMGWINTKIGEPTYAQKFQGRVTMTRDKSSSTAYMELSSLRSEDTAVYYCARLLDYWGQGTLVTVSS
VL: DIQMTQSPSSLSASVGDRVTITCRASQSVLYSSNQKNYLAWYQQKPGKSPKLLIYWASSLQSGVPSRFSGSGSGTDFTLTISSLQPEDFATYYCHQYLSSYTFGQGTKVEIKR
binds: all assays above
